Results are given in words; binding and its absence hold for the method and conditions named. Some results given as binding are weak or reduced against the parent protein; the word gives no strength.
Key:
[1] = biological target: INTS5 (co-expressed in Expi293) (UniProt Q6P9B9); assay: affinity co-purification of co-expressed subunits
[2] = biological target: INTS4 (co-expressed in Expi293) (UniProt Q96HW7); assay: affinity co-purification of co-expressed subunits
[3] = biological target: Flag-4×Protein A-INTS15 (co-expressed in Expi293) (UniProt Q96N11); assay: affinity co-purification of co-expressed subunits
[4] = biological target: purified INTAC auxiliary module (INTS10-13-14-15 module) (UniProt Q96N11); assay: co-sedimentation
[5] = biological target: INTAC RNA endonuclease module (INTS4-INTS9-INTS11 module), immobilised on IgG resin (UniProt Q96HW7); assay: pull-down
[6] = biological target: INTAC auxiliary module (INTS10-13-14-15 module), immobilised on IgG resin (UniProt Q96N11); assay: pull-down
[7] = biological target: INTAC shoulder module (INTS5-INTS8 module), immobilised on IgG resin (UniProt Q6P9B9); assay: pull-down

Sequences of proteins named here, by UniProt entry; tags and fusion partners are left off. A change or cut given only in a name is not applied to a line headed by its entry.
UniProt Q6P9B9: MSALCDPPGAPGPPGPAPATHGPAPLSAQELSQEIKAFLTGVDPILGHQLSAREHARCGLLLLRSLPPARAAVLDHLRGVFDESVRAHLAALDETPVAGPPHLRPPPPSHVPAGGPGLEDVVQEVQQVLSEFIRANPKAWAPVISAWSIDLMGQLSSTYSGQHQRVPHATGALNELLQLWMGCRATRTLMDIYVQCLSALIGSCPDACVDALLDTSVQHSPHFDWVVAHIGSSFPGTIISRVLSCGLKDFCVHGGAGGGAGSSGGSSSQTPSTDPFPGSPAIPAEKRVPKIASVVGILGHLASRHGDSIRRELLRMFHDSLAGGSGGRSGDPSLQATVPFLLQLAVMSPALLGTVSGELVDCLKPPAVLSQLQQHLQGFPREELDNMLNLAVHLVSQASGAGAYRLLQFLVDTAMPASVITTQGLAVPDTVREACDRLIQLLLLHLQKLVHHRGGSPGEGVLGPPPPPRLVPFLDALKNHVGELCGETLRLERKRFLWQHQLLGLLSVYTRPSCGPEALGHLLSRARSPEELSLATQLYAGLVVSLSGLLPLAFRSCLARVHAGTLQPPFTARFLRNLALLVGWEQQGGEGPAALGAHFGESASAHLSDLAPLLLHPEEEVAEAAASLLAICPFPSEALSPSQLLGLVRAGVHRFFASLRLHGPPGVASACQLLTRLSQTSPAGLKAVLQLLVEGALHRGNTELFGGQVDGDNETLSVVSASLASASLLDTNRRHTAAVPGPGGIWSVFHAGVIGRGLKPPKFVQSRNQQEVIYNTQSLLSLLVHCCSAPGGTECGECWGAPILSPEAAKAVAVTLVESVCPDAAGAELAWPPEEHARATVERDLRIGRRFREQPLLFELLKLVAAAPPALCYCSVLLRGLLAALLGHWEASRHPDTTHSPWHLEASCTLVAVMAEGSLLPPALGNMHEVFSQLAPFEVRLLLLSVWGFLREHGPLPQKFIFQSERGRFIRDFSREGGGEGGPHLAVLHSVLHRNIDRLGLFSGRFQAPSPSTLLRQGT
UniProt Q96HW7: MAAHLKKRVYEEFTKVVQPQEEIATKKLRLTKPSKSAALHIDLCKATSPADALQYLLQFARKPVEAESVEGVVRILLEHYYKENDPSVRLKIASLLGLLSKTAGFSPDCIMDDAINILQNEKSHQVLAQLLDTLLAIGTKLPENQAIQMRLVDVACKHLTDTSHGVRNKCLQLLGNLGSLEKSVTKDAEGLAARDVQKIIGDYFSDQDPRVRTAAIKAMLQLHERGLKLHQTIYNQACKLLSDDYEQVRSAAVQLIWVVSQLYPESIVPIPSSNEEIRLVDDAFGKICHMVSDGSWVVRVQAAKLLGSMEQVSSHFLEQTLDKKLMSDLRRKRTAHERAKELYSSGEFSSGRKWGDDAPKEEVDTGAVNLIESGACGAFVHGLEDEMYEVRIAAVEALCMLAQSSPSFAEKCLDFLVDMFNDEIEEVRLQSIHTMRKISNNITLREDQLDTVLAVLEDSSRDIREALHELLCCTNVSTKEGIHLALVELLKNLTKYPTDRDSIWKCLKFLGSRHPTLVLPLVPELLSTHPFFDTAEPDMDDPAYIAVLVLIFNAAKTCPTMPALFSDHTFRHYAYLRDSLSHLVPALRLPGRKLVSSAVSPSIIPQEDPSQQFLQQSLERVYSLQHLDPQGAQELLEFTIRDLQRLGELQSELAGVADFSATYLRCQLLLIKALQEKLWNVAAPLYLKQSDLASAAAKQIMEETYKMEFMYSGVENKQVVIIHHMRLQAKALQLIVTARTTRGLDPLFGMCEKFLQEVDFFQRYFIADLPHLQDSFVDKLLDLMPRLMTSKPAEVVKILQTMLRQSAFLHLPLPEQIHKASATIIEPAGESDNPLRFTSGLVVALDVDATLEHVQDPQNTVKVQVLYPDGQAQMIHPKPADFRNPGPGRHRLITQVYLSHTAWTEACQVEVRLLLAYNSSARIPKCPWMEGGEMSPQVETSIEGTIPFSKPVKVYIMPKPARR
UniProt Q96N11: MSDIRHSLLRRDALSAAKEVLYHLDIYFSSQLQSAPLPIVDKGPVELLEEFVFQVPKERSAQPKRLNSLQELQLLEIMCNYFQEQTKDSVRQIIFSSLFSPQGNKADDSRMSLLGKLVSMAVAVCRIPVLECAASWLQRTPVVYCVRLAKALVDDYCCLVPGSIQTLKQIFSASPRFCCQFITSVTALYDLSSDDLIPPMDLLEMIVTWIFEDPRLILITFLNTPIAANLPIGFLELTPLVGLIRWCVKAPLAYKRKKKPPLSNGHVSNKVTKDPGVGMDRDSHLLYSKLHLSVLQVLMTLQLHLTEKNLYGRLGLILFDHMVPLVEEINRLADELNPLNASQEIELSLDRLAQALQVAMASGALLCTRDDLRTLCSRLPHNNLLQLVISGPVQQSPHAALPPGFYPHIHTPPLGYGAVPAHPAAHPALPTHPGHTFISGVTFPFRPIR
UniProt Q75QN2: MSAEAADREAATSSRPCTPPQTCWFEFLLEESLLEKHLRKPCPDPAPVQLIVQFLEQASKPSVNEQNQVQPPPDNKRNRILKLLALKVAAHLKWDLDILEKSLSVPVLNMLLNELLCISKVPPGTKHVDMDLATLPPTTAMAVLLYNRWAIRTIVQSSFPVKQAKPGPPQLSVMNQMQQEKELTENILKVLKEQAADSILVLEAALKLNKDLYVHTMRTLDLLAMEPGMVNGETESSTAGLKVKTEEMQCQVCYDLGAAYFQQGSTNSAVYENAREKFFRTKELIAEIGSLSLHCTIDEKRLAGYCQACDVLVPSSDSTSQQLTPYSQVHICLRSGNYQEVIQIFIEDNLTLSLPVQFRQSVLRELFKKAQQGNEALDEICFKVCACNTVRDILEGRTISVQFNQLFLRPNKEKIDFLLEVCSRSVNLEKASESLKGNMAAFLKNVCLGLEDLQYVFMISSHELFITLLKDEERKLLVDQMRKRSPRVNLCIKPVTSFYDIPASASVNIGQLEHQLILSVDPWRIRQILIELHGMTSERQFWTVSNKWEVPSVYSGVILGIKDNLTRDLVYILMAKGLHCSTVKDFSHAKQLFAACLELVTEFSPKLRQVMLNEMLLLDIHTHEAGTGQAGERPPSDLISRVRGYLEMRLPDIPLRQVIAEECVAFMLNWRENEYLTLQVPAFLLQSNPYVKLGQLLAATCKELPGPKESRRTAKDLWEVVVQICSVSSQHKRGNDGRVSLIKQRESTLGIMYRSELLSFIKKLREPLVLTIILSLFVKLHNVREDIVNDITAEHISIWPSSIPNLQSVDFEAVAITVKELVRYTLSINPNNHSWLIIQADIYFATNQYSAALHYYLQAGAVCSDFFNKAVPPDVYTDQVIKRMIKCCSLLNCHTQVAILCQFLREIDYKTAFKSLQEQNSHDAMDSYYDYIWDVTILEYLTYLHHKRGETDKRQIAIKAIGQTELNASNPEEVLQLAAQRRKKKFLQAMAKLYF
UniProt Q9NV88: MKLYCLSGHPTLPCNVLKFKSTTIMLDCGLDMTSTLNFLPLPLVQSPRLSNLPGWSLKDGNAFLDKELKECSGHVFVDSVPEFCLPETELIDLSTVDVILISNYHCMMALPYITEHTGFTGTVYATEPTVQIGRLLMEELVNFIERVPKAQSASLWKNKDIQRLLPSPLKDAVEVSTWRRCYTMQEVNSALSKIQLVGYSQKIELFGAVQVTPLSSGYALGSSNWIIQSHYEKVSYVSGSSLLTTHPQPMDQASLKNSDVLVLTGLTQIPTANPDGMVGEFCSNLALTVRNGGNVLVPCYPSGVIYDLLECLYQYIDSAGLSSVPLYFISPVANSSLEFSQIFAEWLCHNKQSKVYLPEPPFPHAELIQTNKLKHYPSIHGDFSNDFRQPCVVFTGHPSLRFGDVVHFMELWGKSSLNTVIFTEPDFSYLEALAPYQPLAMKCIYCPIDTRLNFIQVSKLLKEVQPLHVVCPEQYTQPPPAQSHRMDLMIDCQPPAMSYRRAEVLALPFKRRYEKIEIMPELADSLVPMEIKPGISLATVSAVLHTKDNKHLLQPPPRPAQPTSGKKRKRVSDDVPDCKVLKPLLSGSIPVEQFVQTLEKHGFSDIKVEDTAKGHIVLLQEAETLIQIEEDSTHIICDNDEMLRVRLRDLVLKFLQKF
UniProt Q9NVM9: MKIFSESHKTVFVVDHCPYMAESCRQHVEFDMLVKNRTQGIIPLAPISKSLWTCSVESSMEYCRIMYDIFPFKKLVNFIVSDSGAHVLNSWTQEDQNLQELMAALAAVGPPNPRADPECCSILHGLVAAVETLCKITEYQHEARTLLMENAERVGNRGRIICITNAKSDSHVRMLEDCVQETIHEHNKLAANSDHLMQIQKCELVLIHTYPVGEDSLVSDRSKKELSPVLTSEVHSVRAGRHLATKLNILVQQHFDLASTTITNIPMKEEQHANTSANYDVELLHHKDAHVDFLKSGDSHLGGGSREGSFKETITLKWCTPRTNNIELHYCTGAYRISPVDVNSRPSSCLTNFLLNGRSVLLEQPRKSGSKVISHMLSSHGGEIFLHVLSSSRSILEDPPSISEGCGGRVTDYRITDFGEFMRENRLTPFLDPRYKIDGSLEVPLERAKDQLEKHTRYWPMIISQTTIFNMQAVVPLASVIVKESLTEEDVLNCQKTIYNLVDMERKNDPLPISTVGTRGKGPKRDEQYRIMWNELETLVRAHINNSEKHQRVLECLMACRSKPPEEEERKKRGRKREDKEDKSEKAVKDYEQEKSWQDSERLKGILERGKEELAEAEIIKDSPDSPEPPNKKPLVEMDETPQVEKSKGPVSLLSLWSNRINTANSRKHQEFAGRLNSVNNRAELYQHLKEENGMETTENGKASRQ
UniProt Q96SY0: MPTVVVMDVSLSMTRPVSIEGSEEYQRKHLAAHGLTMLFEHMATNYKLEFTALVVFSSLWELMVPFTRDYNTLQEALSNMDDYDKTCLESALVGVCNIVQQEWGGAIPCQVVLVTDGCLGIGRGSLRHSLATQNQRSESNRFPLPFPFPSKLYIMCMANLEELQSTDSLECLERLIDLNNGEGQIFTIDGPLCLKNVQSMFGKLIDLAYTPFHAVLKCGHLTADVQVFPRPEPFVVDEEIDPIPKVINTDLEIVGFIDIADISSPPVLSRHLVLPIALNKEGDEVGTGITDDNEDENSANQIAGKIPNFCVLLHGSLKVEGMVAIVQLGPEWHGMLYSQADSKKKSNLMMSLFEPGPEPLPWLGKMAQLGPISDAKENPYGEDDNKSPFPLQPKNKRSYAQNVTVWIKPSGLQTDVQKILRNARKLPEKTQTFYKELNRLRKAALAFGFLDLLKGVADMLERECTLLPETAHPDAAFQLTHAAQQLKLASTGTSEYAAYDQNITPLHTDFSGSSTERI
UniProt Q9ULU4: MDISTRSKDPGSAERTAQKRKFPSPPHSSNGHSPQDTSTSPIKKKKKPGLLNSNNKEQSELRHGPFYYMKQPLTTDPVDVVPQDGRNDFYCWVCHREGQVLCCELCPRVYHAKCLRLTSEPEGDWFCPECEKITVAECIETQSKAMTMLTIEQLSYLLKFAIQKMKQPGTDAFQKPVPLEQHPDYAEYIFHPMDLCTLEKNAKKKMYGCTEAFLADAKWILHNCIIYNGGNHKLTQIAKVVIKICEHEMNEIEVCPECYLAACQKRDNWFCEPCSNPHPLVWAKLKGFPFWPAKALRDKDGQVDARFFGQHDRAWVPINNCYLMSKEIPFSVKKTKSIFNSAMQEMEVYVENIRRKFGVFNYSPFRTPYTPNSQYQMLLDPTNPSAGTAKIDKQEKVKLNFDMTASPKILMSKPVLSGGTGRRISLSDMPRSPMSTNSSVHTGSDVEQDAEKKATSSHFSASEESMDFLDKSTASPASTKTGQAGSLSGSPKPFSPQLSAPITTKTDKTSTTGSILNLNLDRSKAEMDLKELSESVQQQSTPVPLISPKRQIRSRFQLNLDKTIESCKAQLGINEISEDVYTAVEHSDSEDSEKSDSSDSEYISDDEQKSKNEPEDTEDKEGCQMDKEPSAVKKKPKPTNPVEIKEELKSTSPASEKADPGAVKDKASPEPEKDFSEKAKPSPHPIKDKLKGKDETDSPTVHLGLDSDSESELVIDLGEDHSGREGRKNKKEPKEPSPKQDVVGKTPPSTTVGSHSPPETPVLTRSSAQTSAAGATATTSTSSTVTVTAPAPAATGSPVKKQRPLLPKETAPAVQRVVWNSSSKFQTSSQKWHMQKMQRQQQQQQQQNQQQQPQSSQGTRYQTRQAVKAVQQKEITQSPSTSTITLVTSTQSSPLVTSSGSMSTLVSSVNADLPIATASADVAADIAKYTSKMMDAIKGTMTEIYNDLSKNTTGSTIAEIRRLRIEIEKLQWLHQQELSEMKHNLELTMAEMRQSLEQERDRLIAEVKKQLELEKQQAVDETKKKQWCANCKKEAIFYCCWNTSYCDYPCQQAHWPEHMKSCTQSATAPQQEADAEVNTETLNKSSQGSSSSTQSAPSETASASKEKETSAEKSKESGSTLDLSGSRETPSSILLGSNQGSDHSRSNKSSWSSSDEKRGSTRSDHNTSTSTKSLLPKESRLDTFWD

“INTS8 (co-expressed in Expi293) (from UniProt Q75QN2 1-995)” was tested, and the binding [1] was “binds”.
In the case of “INTS9 (co-expressed in Expi293) (from UniProt Q9NV88 1-658)”, the binding [2] is reported as “binds”.
“INTS10 (co-expressed in Expi293) (from UniProt Q9NVR2 1-710)” was tested, and the binding [3] was “binds”.
With “INTS13 (co-expressed in Expi293) (from UniProt Q9NVM9 1-706)” the binding [3] was “binds”.
“INTS14 (co-expressed in Expi293) (from UniProt Q96SY0 1-518)” was tested, and the binding [3] was “binds”.
For “purified RACK7-KDM5C complex (from UniProt Q9ULU4 1-1186; P41229 1-1560)”, the binding [4] was “binds”, the binding [5] was “no binding” and the binding [6] was “binds”. The binding [7] was “no binding”.

Source: publication doi:10.1101/2024.02.07.579305
